Measurements published in WO2013015821A1.
Results are given in words; binding and its absence hold for the method and conditions named. A result given as binding can be weak or reduced; the word gives no strength.

Key:
[1] = target: TCblR 32-94,142-233-mycHis (human); assay: TC-[57Co]Cbl binding, Scatchard analysis
[2] = target: TCblR 32-94,142-233-mycHis (human); assay: TC-[57Co]Cbl binding with unlabeled TC-Cbl, WGA-agarose separation, Scatchard analysis

binding [1]: binds
binding [2]: binds
B1: transcobalamin saturated with cobalamin (TC-Cbl) (ligand, human, UniProt P20062 19-427, looked up)
chain: EMCEIPEMDSHLVEKLGQHLLPWMDRLSLEHLNPSIYVGLRLSSLQAGTKEDLYLHSLKLGYQQCLLGSAFSEDDGDCQGKPSMGQLALYLLALRANCEFVRGHKGDRLVSQLKWFLEDEKRAIGHDHKGHPHTSYYQYGLGILALCLHQKRVHDSVVDKLLYAVEPFHQGHHSVDTAAMAGLAFTCLKRSNFNPGRRQRITMAIRTVREEILKAQTPEGHFGNVYSTPLALQFLMTSPMRGAELGTACLKARVALLASLQDGAFQNALMISQLLPVLNHKTYIDLIFPDCLAPRVMLEPAAETIPQTQEIISVTLQVLSLLPPYRQSISVLAGSTVEDVLKKAHELGGFTYETQASLSGPYLTSVMGKAAGEREFWQLLRDPNTPLLQGIADYRPKDGETIELRLVSW
modifications: cobalamin bound non-covalently ([57Co]Cbl in the radio assays)
